Measured values as given in paper doi:10.1101/2020.11.23.391516.
Where two headings read alike, the source gives them in different places. Results are given in words; binding and its absence hold for the method and conditions named. Binding seen in cells or lysates may run through a third protein. Binding can be weak; no strength is given. Tags and fused reporters may be left off the sequences shown. Blank lines part the entries; values can stand above or below the substance they belong to.

Experiments:
[1] = target: T1, SOBIR1-GFP (Arabidopsis thaliana) (UniProt Q9SKB2); test: co-IP
T1 sequence: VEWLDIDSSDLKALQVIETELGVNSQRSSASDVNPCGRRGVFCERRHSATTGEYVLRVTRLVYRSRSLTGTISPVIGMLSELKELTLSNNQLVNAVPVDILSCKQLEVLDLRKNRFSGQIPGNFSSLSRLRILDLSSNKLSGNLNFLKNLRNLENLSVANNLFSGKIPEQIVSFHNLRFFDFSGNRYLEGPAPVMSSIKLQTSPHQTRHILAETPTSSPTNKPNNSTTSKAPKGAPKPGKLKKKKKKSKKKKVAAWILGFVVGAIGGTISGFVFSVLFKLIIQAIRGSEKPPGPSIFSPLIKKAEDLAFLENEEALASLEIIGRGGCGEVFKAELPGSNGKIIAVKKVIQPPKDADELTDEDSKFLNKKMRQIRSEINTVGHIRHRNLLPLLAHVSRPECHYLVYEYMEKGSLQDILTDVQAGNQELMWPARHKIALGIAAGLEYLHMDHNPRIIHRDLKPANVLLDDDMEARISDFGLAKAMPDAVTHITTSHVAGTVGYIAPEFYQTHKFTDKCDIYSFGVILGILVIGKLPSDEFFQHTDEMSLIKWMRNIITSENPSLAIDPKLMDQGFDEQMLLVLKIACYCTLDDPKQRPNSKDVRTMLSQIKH

[2] = target: T1, SOBIR1-GFP (Arabidopsis thaliana); test: co-IP; remark: listed apart in the source
[3] = target: T2, SOBIR1 (rBiFC fusion) (Arabidopsis thaliana) (UniProt Q9SKB2); test: split reporter
T2 sequence: T1 sequence

Substance: ADR1-L1 (rBiFC fusion) (Arabidopsis thaliana)
binding [3]: binds

Substance: ADR1-L2 (rBiFC fusion) (Arabidopsis thaliana)
binding [3]: binds

The remaining lines, values ahead:

binding [1]: binds | binding [2]: binds
Substance: ADR1-L1-HA (Arabidopsis thaliana)

binding [2]: binds
Substance: PBL31-HA (from UniProt F4I2C7)

binding [2]: binds
Substance: ADR1-L2-HA (Arabidopsis thaliana)
